Measurements: patent US11098029B2, “5-alkyl pyrrolidine orexin receptor agonists” (Merck Sharp & Dohme Corp., priority 2019, dated 2021)
At least one compound was matched to its structure with a doubt left.

Protein sequences, listed by entry. Tags and fused reporters are not part of them.
UniProt O43614, whole entry: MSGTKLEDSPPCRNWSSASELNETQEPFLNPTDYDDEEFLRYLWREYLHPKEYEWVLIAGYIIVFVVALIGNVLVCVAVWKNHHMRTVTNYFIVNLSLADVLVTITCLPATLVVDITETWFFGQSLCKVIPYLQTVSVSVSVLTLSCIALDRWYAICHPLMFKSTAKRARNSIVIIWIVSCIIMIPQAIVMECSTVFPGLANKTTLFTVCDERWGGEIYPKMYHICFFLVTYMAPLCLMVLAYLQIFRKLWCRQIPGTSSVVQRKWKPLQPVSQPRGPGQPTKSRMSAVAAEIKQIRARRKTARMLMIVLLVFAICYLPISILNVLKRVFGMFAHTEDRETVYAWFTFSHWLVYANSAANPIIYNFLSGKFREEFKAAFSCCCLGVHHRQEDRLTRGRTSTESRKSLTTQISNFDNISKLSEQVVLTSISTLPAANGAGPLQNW

Target: human OX2R (Homo sapiens (Human), UniProt O43614)
Test: IPOne (IP-One, Cisbio) orexin receptor agonist assay in CHO cells expressing human OX2R
Conditions: read-out: hOX2R_IP IC50, 2 hours incubation, head prints IC50, method reports EC50 (agonist)

## COC(=O)N1C(CCO)CC(NS(C)(=O)=O)C1CO[C@H]1CC[C@@H](c2ccccc2)CC1 (stereo partly drawn) [Example 49, methyl (CIS)-5-(2-hydroxyethyl)-3-(methylsulfonamido)-2-((((CIS)-4-phenylcyclohexyl)oxy)methyl)pyrrolidine-1-carboxylate]
  IC50: 0.0055 µM

## COC(=O)N1C(CO)CC(NS(C)(=O)=O)C1CO[C@H]1CC[C@@H](c2ccccc2)CC1 (stereo partly drawn) [Example 50, methyl (CIS)-5-(hydroxymethyl)-3-(methylsulfonamido)-2-((((CIS)-4-phenylcyclohexyl)oxy)-methyl)pyrrolidine-1-carboxylate]
  IC50: 0.0177 µM
